These results are taken from PubChem BioAssay AID1487 (National Center for Advancing Translational Sciences (NCATS), 2009).

A short description of this assay: qHTS Assay for Modulators of Lamin A Splicing. The note with it: HeLa LMNA splicing GFP/RFP minigene ratio, 48 h. The method, boiled down: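 Read-out is the ratio of GFP to DsRed2 object intensity, acquired by 488 nm laser-scanning cytometry on HeLa lamin A-EGFP minigene reporter cells. Compound incubation 48 hrs at 37 °C in Opti-MEM with 2% FBS; DMSO 0.5% final.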

[1] abbreviates: measured here: RFP viability control channel.
[2] abbreviates: measured here: GFP splicing reporter channel.

The AC50 is the concentration giving half of the maximal activity seen.

Some of the results follow. Further columns of the screen follow, without active or inactive calls. Most of these compounds were active or inconclusive in the main read-out, so they are no random draw. Potencies come from curve fits of mixed quality, noted in brackets.

For `Cc1ccc([N+](=O)[O-])cc1NC(=O)CCc1ccccc1`, the AC50 under setting [1] is 0.1 µM [falling, full curve, poor fit]. Turning to `Cc1ccc(-c2ccc(C(=O)Nc3cccc(F)c3)o2)c2ccccc12`, the AC50 reads like this: under setting [2], 15.8 µM [rising, single point]; under setting [1], 11.2 µM [rising, partial curve]. Consider `COC1(OC)C(/C=C/c2ccc(Cl)cc2)C(C#N)(C#N)C1(OC)OC` (centres undefined), for which the AC50 was 10 µM [falling, partial curve, poor fit] under setting [2] and 2.51 µM [rising, partial curve] under setting [1].

`S=C1c2ccccc2CN1c1ccccc1`: the AC50 was 2.82 µM [rising, partial curve, poor fit] under setting [2] and 1.26 µM [rising, partial curve, poor fit] under setting [1]. As for `CCCCOc1ccc(N2C(=O)CC(N(O)c3ccccc3)C2=O)cc1` (centres undefined), the AC50 under setting [1] was 17.8 µM [rising, single point]. Consider `CC(C)=CCN1CCN(Cc2nc(-c3ccccc3)cs2)CC1CCO` (centres undefined), for which the AC50 under setting [2] was 0.0708 µM [rising, full curve, poor fit].

As to `O=C(/C=C/c1ccco1)NC(=S)Nc1ccccc1O`, under setting [1], the AC50 was 6.31 µM [rising, partial curve]. Same read-out and setting: the same measure for `S=C(NCc1ccc2[nH]c3c(c2c1)CCCC3)Nc1ccccc1`: 35.5 µM [rising, single point].

Regarding `COc1cc2nc(CN3C(=O)c4ccccc4C3=O)oc(=O)c2cc1OC`, the AC50 under setting [1] is 0.00447 µM [falling, full curve, poor fit].

As to `O=C(NNC1=C(C(=O)C(F)(F)F)CCC1)c1ccccc1Cl`, the AC50 under setting [1] was 31.6 µM [rising, single point]. `COc1ccc(CN(C2CCCCC2C)S(=O)(=O)c2ccc(S(=O)(=O)N(C)C)cc2)cc1OC` (centres undefined): the AC50 under setting [2] is 31.6 µM [rising, single point]. In the case of `O=C(NN=C(Cc1ccccc1)Cc1ccccc1)C1CC1`, the AC50 under setting [1] was 0.282 µM [falling, full curve, poor fit].

With `CCN1CCC(N(Cc2cccc(OC)c2)C(=O)Nc2cccc(C(F)(F)F)c2)CC1`, the AC50 under setting [2] is 31.6 µM [falling, single point]. Same read-out and setting: the same measure for `CCN(CC)c1ccc(C(=O)NCc2ccc3c(c2)CCN3C(=O)c2ccccc2)cc1`: 20 µM [falling, partial curve, poor fit]. `Cc1ccc(-c2[nH]ncc2/C=N/n2c(COc3ccccc3)nc3ccccc3c2=O)cc1`: the AC50 by setting is: under setting [2], 17.8 µM [falling, partial curve]; under setting [1], 35.5 µM [falling, single point]. `O=C(Nc1nnc(C23CC4CC(CC(C4)C2)C3)s1)c1ccc(N2C(=O)CCC2=O)cc1`: the AC50 under setting [1] was 2 µM [rising, partial curve]. For the molecule `O=C(O)c1cccc(N2C(=S)N=C(Nc3ccccc3)C23CCCCC3)c1`, under setting [1], the AC50 is 0.0355 µM [falling, full curve, poor fit]. For `Cc1ccc(N2CCN(c3ccc(C)cc3)C2c2cccnc2)cc1`, under setting [2], the AC50 is 28.2 µM [rising, single point].

For `O=C(CC1N=C2c3ccccc3N=C(SCc3ccc(Cl)cc3)N2C1=O)NCCc1ccccc1` (centres undefined), the AC50 is, setting by setting: under setting [2], 11.2 µM [falling, partial curve]; under setting [1], 14.1 µM [falling, partial curve]. In the case of `O=S(=O)(Nc1cccc(-c2nc3cccnc3s2)c1)c1ccc2c(c1)OCCO2`, under setting [1], the AC50 is 12.6 µM [rising, partial curve].

`CCc1ccc(NC(=O)CC2C(=O)NCCN2C(=S)Nc2ccccc2)cc1` (centres undefined): the AC50 by setting is: under setting [2], 14.1 µM [rising, single point]; under setting [1], 35.5 µM [rising, single point]. As for `O=C1CCC(=O)N1c1cccc(OS(=O)(=O)c2ccccc2)c1`, the AC50 under setting [2] is 6.31 µM [falling, partial curve]. As for `CC(C)c1ccc(CCNC(=O)c2ccc([N+](=O)[O-])cc2)cc1`, under setting [1], the AC50 is 14.1 µM [rising, partial curve, poor fit].

Regarding `O=C(Cc1ccc(Cl)cc1)c1c[nH]c(C(=O)NCCCN2CCOCC2)c1`, under setting [2], the AC50 is 0.0501 µM [falling, full curve]. Regarding `CCN(CC)C(=O)CSc1ncnc2c1cnn2Cc1ccccc1`, the AC50 reads like this: under setting [2], 22.4 µM [rising, partial curve]; under setting [1], 35.5 µM [rising, single point].

For the molecule `CCC1=Nc2cc(C(=O)NCc3ccco3)ccc2Sc2ccc(C)cc21`, under setting [1], the AC50 is 35.5 µM [falling, single point]. As to `COc1ccccc1/C=C/C(=O)NCC(=O)N/N=C/c1cc(Br)ccc1OC`, the AC50 under setting [1] was 10 µM [rising, partial curve, poor fit]. `COCc1cc(C)nc(SCc2nc3ccccc3c(=O)[nH]2)c1C#N`: the AC50 under setting [2] was 0.178 µM [falling, full curve, poor fit] and the AC50 under setting [1] is 1 µM [falling, partial curve]. In the case of `COc1ccc2c(c1)CCc1c(C(=O)N3CCCc4ccccc43)noc1-2`, the AC50 under setting [1] is 6.31 µM [rising, partial curve, poor fit].

For `COc1cccc(CNC(=O)CN2C(=O)N(c3cc(C)ccc3C)S(=O)(=O)c3ccccc32)c1OC`, the AC50 under setting [1] was 0.355 µM [rising, full curve, poor fit].

For `O=C(c1cn(-c2ccccc2)nc1-c1ccc(F)cc1)N1CCCCC1`, the AC50 under setting [2] was 28.2 µM [rising, partial curve, poor fit]. For `CCCCOc1ccc(OC(=O)c2sc3ncn(Cc4cccc(F)c4)c(=O)c3c2C)cc1`, under setting [1], the AC50 was 0.02 µM [falling, full curve, poor fit].

As to `CCOc1ccccc1C1C2C(=O)N(c3ccccc3)C(=O)C2ON1c1ccccc1` (centres undefined), the AC50 under setting [1] is 2.51 µM [falling, partial curve, poor fit]. As for `CCn1c(SCC(=O)Nc2cc(C)ccc2C)nc2c(c1=O)SC(C)C2` (centres undefined), the AC50 is, setting by setting: under setting [2], 5.62 µM [falling, partial curve, poor fit]; under setting [1], 5.62 µM [falling, single point]. On to `c1ccc(C2OC3c4cccc5cccc(c45)C3N2c2ccccc2)cc1` (centres undefined), for which the AC50 under setting [1] was 35.5 µM [rising, single point]. As to `CC(=O)N1CCc2c(sc(NC(=O)c3ccc4c(c3)OCCO4)c2C#N)C1`, the AC50 under setting [1] is 2.82 µM [rising, partial curve]. Same read-out and setting: the same measure for `CCCCCC(=O)N/N=C(\C)c1ccccn1`: 6.31 µM [rising, full curve]. In the case of `COc1cccc(Nc2ncc3ncc(=O)n(C[C@H]4CCCO4)c3n2)c1`, the half-maximal activity concentration (AC50) was 11.2 µM [falling, partial curve] under setting [2] and 11.2 µM [falling, partial curve] under setting [1].

Take `CN(C)/C=N/C(=S)Nc1ccccc1F`: the AC50 under setting [2] is 35.5 µM [rising, single point]. As to `O=[N+]([O-])c1ccc2cn[nH]c2c1`, the AC50 under setting [2] is 14.1 µM [rising, single point] and the AC50 under setting [1] was 14.1 µM [rising, partial curve, poor fit].

Turning to `O=CN1CCN(C(=O)COc2ccc(Cl)cc2Br)CC1`, the AC50 under setting [2] is 5.01 µM [rising, partial curve] and the half-maximal activity concentration (AC50) under setting [1] is 5.01 µM [rising, partial curve, poor fit]. With `CCc1ccc(C2=CC(c3cc(Br)ccc3F)n3ncnc3N2)cc1` (centres undefined), the AC50 under setting [1] was 2.82 µM [rising, partial curve]. Take `Clc1nc(-c2ccccn2)nc2scc(-c3ccccc3)c12`: the AC50 under setting [1] is 2.51 µM [rising, partial curve]. `O=C(CSc1ncc(CO)n1Cc1ccccc1)Nc1nc2ccccc2s1`: the AC50 under setting [2] is 17.8 µM [falling, single point] and the AC50 under setting [1] was 12.6 µM [falling, partial curve, poor fit]. On to `COc1cc(CN(C(=O)COc2ccc(Br)cc2)c2ccccn2)cc(OC)c1OC`, for which the AC50 runs as follows: under setting [2], 0.0708 µM [falling, full curve]; under setting [1], 0.141 µM [falling, full curve, poor fit].

Consider `CN1CCN(C(c2ccccc2)c2ccccc2)CC1`, for which the AC50 under setting [2] was 0.000794 µM [falling, full curve, poor fit].

Consider `N#CC1(C#N)[C@@H](C(=O)C23CC4CC(CC(C4)C2)C3)C12CCOCC2`, for which the AC50 under setting [2] is 2 µM [rising, single point] and the AC50 under setting [1] is 2.24 µM [rising, partial curve]. As for `CC1(C)C2CCC1(CS(=O)(=O)Nc1ccc(S(=O)(=O)NC3CCCCC3)cc1)C(=O)C2` (centres undefined), under setting [1], the AC50 is 35.5 µM [rising, single point]. Same read-out and setting: the same measure for `CC(C(=O)Nc1ccccc1)c1ccc(-c2ccccc2)c(F)c1` (centres undefined): 7.08 µM [rising, partial curve]. As to `CCCCCOC(=O)c1cc(=O)[nH]c2ccccc12`, the AC50 by setting is: under setting [2], 12.6 µM [falling, single point]; under setting [1], 11.2 µM [falling, partial curve, poor fit]. Regarding `Fc1ccc(-c2nn(-c3ccccc3)cc2CNCc2ccccc2)cc1`, the AC50 was 22.4 µM [falling, partial curve] under setting [2] and 25.1 µM [falling, partial curve] under setting [1]. Take `O=c1[nH]c(-c2ccc(F)cc2)nc2c1sc(=S)n2-c1ccccc1`: under setting [1], the AC50 was 12.6 µM [rising, partial curve].

For the molecule `CC(=O)N(Cc1cc2cc(C)c(C)cc2n2nnnc12)CC1COCCO1` (centres undefined), under setting [1], the AC50 was 0.282 µM [falling, full curve, poor fit].

As to `CN(C)CCCN(C(=O)COc1ccccc1)c1nc2c(Cl)cccc2s1`, the concentration at half-maximal activity (AC50) under setting [2] is 1.41 µM [rising, partial curve, poor fit] and the AC50 under setting [1] was 0.631 µM [rising, full curve, poor fit]. As for `CC(C)N(C(=O)NC(=O)NCC1CCCO1)S(C)(=O)=O` (centres undefined), under setting [1], the AC50 is 35.5 µM [falling, single point].

As to `CCOC(=O)/C(=C\C=C\c1ccccc1)NC(=O)c1ccccc1`, the AC50 under setting [1] was 22.4 µM [rising, partial curve, poor fit].
